In patent US5455161A, “Method for the monitoring of multiple anticancer drug resistance” (priority 1992, dated 1995):

Columns and labels:
[1] = molecular target: T1, ornithine decarboxylase from AA8 cells (Cricetulus griseus, UniProt P14019); conditions: read-out: apparent Michaelis constant of ornithine decarboxylase; enzyme from AA8 cells
T1 sequence (P14019 1-455): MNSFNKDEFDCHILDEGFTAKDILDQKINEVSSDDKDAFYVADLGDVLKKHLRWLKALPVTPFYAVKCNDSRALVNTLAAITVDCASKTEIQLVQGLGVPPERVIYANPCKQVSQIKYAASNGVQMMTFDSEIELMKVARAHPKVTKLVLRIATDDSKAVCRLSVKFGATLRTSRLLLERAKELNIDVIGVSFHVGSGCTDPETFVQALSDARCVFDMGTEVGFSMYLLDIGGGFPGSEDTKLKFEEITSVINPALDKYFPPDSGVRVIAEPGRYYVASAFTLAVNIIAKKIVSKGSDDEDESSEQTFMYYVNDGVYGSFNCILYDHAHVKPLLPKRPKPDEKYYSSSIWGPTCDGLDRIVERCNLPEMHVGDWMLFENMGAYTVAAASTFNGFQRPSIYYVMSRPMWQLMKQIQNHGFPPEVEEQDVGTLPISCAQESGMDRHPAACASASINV

[2] = test system: ornithine decarboxylase from multidrug resistance T19 cells; conditions: read-out: apparent Michaelis constant of ornithine decarboxylase; enzyme from T19 cells

With `NCCC[C@H](N)C(=O)O` [L-ornithine] the Km [1] was 48 µM and the Km [2] was 46 µM.
